No constants are given. Whether binding was seen depends on the method and setting.
What was measured:
MST3 (human) = MST3 (human) (UniProt Q9Y6E0); test: two-hybrid; ULTImate Y2H screens (Hybrigenics) of a random-primed primary human hepatocyte cDNA library in pP6; baits LexA-MST3 and LexA-MST4 in pB27, STK25 screen as described in ref. 26; mating of YHGX13 and L40deltaGal4 yeast strains; selection on medium lacking tryptophan, leucine and histidine
MST4 (human) = MST4 (human) (UniProt Q9P289); test: as above

Amino acid sequences for entries named in this document (tags omitted). A change or cut given only in a name is not applied to a line headed by its entry. Residues count along the entry.
UniProt Q9Y6E0, residues 2-443: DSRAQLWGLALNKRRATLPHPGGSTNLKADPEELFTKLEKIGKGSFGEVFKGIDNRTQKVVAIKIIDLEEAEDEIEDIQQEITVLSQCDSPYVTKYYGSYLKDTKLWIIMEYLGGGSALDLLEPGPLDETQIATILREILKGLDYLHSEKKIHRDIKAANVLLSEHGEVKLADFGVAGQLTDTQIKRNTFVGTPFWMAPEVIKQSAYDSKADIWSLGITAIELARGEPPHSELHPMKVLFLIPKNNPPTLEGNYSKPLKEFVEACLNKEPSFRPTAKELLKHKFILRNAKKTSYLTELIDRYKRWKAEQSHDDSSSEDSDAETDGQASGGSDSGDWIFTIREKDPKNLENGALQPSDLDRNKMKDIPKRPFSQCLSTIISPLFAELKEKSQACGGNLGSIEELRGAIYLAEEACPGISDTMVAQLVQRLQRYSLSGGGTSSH
UniProt Q9P289, residues 2-416: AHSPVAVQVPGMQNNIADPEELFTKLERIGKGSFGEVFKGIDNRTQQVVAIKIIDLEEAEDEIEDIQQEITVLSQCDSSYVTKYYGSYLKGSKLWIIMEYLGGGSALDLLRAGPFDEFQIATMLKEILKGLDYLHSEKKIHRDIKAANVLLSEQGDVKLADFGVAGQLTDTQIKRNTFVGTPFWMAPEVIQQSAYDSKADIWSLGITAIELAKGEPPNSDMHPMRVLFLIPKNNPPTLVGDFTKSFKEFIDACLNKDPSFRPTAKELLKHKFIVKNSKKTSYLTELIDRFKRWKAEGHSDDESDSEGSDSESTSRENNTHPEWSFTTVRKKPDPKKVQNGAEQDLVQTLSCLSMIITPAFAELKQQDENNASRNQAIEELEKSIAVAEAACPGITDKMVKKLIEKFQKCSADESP
UniProt O00506: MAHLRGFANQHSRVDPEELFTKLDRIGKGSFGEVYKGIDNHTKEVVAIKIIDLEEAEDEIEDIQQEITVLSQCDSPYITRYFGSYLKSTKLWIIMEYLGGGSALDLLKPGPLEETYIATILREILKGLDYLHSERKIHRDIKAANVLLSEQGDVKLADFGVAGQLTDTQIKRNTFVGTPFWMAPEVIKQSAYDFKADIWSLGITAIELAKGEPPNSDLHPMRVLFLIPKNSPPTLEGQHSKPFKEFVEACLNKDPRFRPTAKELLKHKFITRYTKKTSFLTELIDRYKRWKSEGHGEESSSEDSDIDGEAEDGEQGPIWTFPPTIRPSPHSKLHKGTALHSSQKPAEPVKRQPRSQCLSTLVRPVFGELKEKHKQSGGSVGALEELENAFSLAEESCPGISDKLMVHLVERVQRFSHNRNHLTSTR

| binding (MST3 (human)) | binding (MST4 (human)) | Substance |
| --- | --- | --- |
| no binding | – | MST4 (from UniProt Q9P289-1 2-416) |
| no binding | no binding | STK25 (from UniProt O00506 1-426) |
